# Assay results published in PubChem BioAssay AID540267 (National Center for Advancing Translational Sciences (NCATS), 2011).
# The campaign covered roughly 340,000 compounds. About 530 (0.16%) were called active. Listed are the inconclusive results; actives and inactives stand elsewhere. No stated cut-off is given here; in the data, active means activity change below about -80%; inconclusive means between about -30% and that limit; inactive means weaker than that.
# Assay: Small Molecules that selectively kill Giardia lamblia: qHTS;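 further: parasites exposed to compound for two days anaerobically before the ATP read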
# Conditions: Giardia lamblia trophozoite viability; at 7.66 µM; hits give low values
# Source text: Giardia lamblia is a human pathogen afflicting impoverished nations, and the most common cause of outbreaks of diarrhea in the United States. Giardia has been classified by the CDC as a category B bioterrorism organism. The favored anti giardiasis drugs in the US are metronidazole or tinidazole, compounds that have undesirable side effects. Moreover, increasing resistance to drug regimes and recurrence are a concern. It is thus clear that alternative drug treatments are needed.
# In a collaboration between the University of Maryland, College Park and the NIH Chemical Genomics Center, a bioluminescence Giardia viability assay based on the trophozoites' ATP content was developed. This assay is suitable for high throughput screening, and miniaturized the assay for compound screening in 1536-well plates. The goal of the project is to screen the Molecular Libraries Small Molecule Repository (MLSMR) for compounds that selectively kill Giardia trophozoites.
# NIH Chemical Genomics Center [NCGC]
# NIH Molecular Libraries Probe Centers Network [MLPCN]
# Assay Submitter (PI): Osnat Herzberg, University of Maryland, College Park, MD.
# 1. Dispense 2 ul/well media
# 2. Dispense 23 nl/well compounds
# 3. Dispense 4 ul/well Giardia trophozoites at a concentration of 100 cells/well
# 4. […]
# 5. Dispense 4 ul/well ATPLite 1-Step Luminescence assay kit […]
# 7. Read luminescence signal on ViewLux plate reader
# On the % scale 0 is the no-effect control and ±100 the full control effect.
row,SMILES,activity change
1,O=[N+]([O-])c1cc([N+](=O)[O-])c(NCC2CCS(=O)(=O)C2)c([N+](=O)[O-])c1 (stereo unspecified),inconclusive: -34.9%
